Results are given in words; binding and its absence hold for the method and conditions named. Binding seen in cells or lysates may run through a third protein. Some binding calls cover weakened binding; strength is not graded here.

Chains of the proteins cited; added tags and fusions are not shown.
UniProt A2AGL3: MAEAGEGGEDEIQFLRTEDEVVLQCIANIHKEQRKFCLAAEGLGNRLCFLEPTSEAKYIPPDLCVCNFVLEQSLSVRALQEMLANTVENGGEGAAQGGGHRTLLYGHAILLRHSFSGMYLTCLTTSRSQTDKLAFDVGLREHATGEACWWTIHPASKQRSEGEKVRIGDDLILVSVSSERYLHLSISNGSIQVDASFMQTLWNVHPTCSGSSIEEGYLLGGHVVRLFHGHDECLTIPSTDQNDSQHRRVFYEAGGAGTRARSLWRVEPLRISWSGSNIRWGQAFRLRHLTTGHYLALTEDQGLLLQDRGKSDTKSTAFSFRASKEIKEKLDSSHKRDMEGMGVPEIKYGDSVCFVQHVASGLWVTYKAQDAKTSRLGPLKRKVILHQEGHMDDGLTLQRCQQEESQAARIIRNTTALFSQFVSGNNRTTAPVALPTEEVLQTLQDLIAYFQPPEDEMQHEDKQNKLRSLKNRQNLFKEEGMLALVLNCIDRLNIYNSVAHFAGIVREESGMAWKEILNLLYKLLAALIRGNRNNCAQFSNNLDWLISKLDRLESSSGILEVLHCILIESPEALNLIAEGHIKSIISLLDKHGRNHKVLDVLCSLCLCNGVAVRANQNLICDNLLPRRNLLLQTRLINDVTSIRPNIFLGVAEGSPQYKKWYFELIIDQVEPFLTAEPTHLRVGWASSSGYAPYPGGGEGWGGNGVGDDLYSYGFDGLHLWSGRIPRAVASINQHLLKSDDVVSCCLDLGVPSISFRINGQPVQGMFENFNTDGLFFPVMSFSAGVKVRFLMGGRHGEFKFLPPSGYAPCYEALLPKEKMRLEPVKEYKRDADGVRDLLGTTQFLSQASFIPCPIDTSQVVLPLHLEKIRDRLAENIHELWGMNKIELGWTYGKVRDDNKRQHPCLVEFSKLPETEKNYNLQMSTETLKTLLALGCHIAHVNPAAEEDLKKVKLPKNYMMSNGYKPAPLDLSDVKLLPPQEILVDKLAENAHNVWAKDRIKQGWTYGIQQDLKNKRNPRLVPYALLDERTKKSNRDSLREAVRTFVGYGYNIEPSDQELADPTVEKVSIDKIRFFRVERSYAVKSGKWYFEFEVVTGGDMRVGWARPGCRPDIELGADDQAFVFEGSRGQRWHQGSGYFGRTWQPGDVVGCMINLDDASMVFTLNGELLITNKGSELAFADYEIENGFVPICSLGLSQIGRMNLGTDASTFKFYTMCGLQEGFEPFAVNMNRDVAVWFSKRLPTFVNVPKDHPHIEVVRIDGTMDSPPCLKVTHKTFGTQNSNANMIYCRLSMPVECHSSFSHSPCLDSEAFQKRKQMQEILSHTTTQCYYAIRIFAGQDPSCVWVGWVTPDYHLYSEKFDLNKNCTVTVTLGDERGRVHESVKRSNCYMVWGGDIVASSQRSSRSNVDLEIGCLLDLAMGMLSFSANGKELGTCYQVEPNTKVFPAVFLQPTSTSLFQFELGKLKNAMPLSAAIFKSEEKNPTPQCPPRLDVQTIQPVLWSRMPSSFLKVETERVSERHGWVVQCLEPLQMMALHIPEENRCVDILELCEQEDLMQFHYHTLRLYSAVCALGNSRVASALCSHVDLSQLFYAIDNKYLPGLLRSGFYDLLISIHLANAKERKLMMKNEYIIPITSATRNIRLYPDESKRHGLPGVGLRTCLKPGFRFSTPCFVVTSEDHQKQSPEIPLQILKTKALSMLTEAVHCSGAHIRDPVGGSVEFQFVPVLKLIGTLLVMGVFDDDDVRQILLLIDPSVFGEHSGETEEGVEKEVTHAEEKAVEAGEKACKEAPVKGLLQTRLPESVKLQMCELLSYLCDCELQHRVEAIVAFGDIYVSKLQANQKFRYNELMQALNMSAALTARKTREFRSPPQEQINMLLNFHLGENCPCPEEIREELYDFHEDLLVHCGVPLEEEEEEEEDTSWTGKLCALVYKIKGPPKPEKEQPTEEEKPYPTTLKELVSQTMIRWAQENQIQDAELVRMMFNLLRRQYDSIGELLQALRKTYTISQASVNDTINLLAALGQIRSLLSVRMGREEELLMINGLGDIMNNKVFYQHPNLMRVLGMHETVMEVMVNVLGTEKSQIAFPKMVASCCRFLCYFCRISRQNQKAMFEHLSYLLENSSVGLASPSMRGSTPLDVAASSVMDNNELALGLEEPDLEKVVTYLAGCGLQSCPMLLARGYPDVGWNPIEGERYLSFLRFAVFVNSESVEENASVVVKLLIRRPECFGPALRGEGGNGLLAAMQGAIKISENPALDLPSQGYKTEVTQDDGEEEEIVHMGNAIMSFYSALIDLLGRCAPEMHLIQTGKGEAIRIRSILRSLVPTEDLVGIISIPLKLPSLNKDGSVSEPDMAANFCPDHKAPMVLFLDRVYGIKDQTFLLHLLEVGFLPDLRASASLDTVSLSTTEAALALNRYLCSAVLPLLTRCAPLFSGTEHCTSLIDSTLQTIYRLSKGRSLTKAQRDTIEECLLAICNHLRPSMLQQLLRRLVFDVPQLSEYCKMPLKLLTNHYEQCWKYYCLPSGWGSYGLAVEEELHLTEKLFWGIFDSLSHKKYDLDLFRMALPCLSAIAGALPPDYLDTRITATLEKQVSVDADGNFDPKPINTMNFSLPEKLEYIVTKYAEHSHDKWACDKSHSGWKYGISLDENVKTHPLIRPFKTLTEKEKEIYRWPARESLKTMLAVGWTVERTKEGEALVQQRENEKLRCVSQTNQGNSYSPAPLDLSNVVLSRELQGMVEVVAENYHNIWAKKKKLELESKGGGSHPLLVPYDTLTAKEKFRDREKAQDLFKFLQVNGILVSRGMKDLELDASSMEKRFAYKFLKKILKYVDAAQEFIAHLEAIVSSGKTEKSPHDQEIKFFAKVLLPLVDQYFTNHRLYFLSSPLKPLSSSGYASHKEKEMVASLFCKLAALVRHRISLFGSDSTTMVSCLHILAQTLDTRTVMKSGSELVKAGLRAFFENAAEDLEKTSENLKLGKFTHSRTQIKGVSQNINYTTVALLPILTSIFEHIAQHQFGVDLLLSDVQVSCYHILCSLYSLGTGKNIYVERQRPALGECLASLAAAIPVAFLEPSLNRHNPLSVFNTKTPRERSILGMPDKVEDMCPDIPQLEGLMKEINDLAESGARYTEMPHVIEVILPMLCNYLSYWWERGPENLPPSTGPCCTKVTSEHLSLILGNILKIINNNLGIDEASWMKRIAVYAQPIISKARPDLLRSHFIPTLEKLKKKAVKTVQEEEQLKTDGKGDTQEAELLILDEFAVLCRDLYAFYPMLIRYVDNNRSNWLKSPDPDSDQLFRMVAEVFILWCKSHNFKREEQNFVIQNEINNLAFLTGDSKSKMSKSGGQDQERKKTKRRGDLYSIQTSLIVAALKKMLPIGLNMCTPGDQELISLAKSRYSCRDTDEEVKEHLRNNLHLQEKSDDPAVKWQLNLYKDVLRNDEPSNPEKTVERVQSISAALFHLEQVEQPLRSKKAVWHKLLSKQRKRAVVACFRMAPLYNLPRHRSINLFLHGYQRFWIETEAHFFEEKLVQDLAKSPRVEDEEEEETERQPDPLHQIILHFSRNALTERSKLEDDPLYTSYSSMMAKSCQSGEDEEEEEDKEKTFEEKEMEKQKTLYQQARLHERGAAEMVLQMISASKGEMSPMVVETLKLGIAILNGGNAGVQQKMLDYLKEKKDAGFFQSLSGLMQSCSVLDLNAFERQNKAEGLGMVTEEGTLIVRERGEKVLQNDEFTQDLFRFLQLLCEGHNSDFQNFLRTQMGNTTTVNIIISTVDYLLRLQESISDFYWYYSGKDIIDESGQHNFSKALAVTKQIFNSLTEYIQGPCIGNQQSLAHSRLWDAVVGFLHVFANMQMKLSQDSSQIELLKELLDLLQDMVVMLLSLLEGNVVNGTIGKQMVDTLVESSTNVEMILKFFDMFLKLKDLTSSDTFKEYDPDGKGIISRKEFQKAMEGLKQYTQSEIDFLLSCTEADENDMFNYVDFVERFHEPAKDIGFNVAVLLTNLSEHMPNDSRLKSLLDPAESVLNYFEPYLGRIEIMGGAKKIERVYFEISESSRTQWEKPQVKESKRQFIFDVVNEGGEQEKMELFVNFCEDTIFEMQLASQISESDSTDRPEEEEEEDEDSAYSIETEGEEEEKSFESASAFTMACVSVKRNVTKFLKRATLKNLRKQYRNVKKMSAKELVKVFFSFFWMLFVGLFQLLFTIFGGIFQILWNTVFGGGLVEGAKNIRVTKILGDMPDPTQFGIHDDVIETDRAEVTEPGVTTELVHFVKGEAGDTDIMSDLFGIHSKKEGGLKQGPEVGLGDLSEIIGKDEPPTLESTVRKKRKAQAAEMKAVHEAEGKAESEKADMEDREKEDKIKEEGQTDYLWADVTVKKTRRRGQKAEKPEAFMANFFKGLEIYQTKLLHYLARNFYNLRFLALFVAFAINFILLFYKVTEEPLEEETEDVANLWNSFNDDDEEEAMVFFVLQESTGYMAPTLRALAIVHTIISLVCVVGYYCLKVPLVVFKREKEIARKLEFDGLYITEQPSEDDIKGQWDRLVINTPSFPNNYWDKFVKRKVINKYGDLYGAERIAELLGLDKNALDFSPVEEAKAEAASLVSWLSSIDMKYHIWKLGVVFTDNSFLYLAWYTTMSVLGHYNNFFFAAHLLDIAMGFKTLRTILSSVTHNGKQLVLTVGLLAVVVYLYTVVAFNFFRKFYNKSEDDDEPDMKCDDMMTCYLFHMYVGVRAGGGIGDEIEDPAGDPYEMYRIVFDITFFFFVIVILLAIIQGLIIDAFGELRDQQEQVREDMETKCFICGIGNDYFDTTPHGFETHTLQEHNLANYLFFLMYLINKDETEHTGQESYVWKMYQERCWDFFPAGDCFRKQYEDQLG
UniProt Q9Z2I2: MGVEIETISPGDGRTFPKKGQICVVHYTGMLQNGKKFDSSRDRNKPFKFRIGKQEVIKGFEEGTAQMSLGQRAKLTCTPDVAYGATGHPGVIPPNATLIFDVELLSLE

The test concerns the target ryanodine receptor 3 (mouse (endogenous in HT-22)) (UniProt A2AGL3). The experiment in a line: co-IP; HT-22 cell lysate (Triton X-100, 100 mmol/l NaCl, 50 mmol/l Tris HCl, 10 mmol/l EDTA); antibody against RyR with protein-G agarose, 12 hours; immunoblot for FKBP12.6; cells control, hypoxia-reoxygenation (H/R), or H/R after propofol pretreatment (different concentrations, 2 hr). (In general: In western blotting, separated proteins are transferred to a membrane and probed.)

“FK506-binding protein 12.6 (from UniProt Q9Z2I2 1-108)”: the binding result was “binds”.

Source of the values: PMC6038584.
